Experimental data taken from patent US11834480B2 (priority 2020, dated 2023).
At least one peptide structure holds a part that was inferred or is arguable (an end, a ring closure or a residue).

How the values were obtained:
[1] = molecular target: L-form of SARS-CoV-2 HR1 (SARS CoV-2 HR1-biotin) (Severe acute respiratory syndrome coronavirus 2, UniProt P0DTC2); format: binding; settings: read-out: observed KD to the L-form of SARS-CoV-2 HR1
[2] = molecular target: D-form of SARS-CoV-2 HR1 (SARS CoV-2 D-HR1-biotin) (Severe acute respiratory syndrome coronavirus 2, UniProt P0DTC2); format: binding; settings: read-out: observed KD to immobilized D-form of SARS-CoV-2 HR1

## CC[C@H](C)[C@H](NC(=O)[C@H](C)NC(=O)[C@H](CCC(=O)O)NC(=O)[C@H](CCC(=O)O)NC(=O)[C@H](CC(C)C)NC(=O)[C@H](CCCCN)NC(=O)[C@H](CCCCN)NC(=O)[C@H](CCSC)NC(=O)[C@H](CCC(=O)O)NC(=O)[C@H](Cc1ccc(O)cc1)NC(=O)[C@H](CCC(=O)O)NC(=O)[C@H](CC(C)C)NC(=O)[C@H](CC(=O)O)NC(=O)[C@H](CC(C)C)NC(=O)[C@H](Cc1ccccc1)NC(=O)[C@@H](NC(=O)[C@@H](NC(=O)[C@H](CC(N)=O)NC(=O)[C@@H](NC(=O)[C@H](CCC(N)=O)NC(=O)[C@H](CC(=O)O)NC(=O)[C@H](CC(C)C)NC(=O)[C@@H](N)CO)[C@@H](C)CC)C(C)C)[C@@H](C)O)C(=O)N[C@@H](CCCCN)C(=O)N[C@@H](CCCCN)C(=O)N[C@@H](CC(C)C)C(=O)N[C@@H](CCC(=O)O)C(=O)N[C@@H](CCC(=O)O)C(=O)N[C@@H](CO)C(=O)N[C@@H](Cc1ccc(O)cc1)C(=O)N[C@H](C(=O)N[C@@H](CC(=O)O)C(=O)N[C@@H](CC(C)C)C(=O)N[C@@H](CCCCN)C(=O)N[C@@H](CCC(=O)O)C(=O)N[C@@H](CC(C)C)C(=O)O)[C@@H](C)CC [L-EK1, reference compound]
[1]
  Kd: 23 nM

## CC[C@@H](C)[C@@H](NC(=O)[C@@H](C)NC(=O)[C@@H](CCC(=O)O)NC(=O)[C@@H](CCC(=O)O)NC(=O)[C@@H](CC(C)C)NC(=O)[C@@H](CCCCN)NC(=O)[C@@H](CCCCN)NC(=O)[C@@H](CCSC)NC(=O)[C@@H](CCC(=O)O)NC(=O)[C@@H](Cc1ccc(O)cc1)NC(=O)[C@@H](CCC(=O)O)NC(=O)[C@@H](CC(C)C)NC(=O)[C@@H](CC(=O)O)NC(=O)[C@@H](CC(C)C)NC(=O)[C@@H](Cc1ccccc1)NC(=O)[C@H](NC(=O)[C@H](NC(=O)[C@@H](CC(N)=O)NC(=O)[C@H](NC(=O)[C@@H](CCC(N)=O)NC(=O)[C@@H](CC(=O)O)NC(=O)[C@@H](CC(C)C)NC(=O)[C@H](N)CO)[C@H](C)CC)C(C)C)[C@H](C)O)C(=O)N[C@H](CCCCN)C(=O)N[C@H](CCCCN)C(=O)N[C@H](CC(C)C)C(=O)N[C@H](CCC(=O)O)C(=O)N[C@H](CCC(=O)O)C(=O)N[C@H](CO)C(=O)N[C@H](Cc1ccc(O)cc1)C(=O)N[C@@H](C(=O)N[C@H](CC(=O)O)C(=O)N[C@H](CC(C)C)C(=O)N[C@H](CCCCN)C(=O)N[C@H](CCC(=O)O)C(=O)N[C@H](CC(C)C)C(=O)O)[C@H](C)CC [D-EK1, reference compound]
[2]
  Kd: 32 nM
